Laboratory results from paper PMC3094399.
No constants are given. Whether binding was seen depends on the method and setting. Binding seen in cells or lysates may run through a third protein. A result given as binding can be weak or reduced; the word gives no strength. Tags and fused reporters may be left off the sequences shown.

Columns and labels:
Experiment in all cases: co-IP; COS cells co-transfected with Flag-tagged OR constructs and MKS3 or HA-tagged MKS1; immunoprecipitation with a Flag antibody, blot for MKS3 or for HA (MKS1)
[1] = target: MOR EG, N-terminal Flag tag
[2] = target: MOR256-21, N-terminal Flag tag
[3] = target: MOR256-24, N-terminal Flag tag
[4] = target: MOR256-25, N-terminal Flag tag

Measured: binding

B1: Meckel-Gruber syndrome 1 (MKS1), HA-tagged (protein, UniProt Q9NXB0 1-559)
chain: MAETVWSTDTGEAVYRSRDPVRNLRLRVHLQRITSSNFLHYQPAAELGKDLIDLATFRPQPTASGHRPEEDEEEEIVIGWQEKLFSQFEVDLYQNETACQSPLDYQYRQEILKLENSGGKKNRRIFTYTDSDRYTNLEEHCQRMTTAASEVPSFLVERMANVRRRRQDRRGMEGGILKSRIVTWEPSEEFVRNNHVINTPLQTMHIMADLGPYKKLGYKKYEHVLCTLKVDSNGVITVKPDFTGLKGPYRIETEGEKQELWKYTIDNVSPHAQPEEEERERRVFKDLYGRHKEYLSSLVGTDFEMTVPGALRLFVNGEVVSAQGYEYDNLYVHFFVELPTAHWSSPAFQQLSGVTQTCTTKSLAMDKVAHFSYPFTFEAFFLHEDESSDALPEWPVLYCEVLSLDFWQRYRVEGYGAVVLPATPGSHTLTVSTWRPVELGTVAELRRFFIGGSLELEDLSYVRIPGSFKGERLSRFGLRTETTGTVTFRLHCLQQSRAFMESSSLQKRMRSVLDRLEGFSQQSSIHNVLEAFRRARRRMQEARESLPQDLVSPSGTLVS
binds: all assays above
